{"source": "paper PMC8401035", "about": "(Molecules, 2021)"}
{"experiment": "general procedure: Fmoc solid-phase peptide synthesis; Rink amide MBHA resin (~0.5 mmol/g); DIC/6-Cl-HOBt or HBTU/NMM", "settings": "whole synthesis, scale 0.25 mmol", "units": {"isolated yield": "%"}}
{"substance": "HSDAIFTDSY10SRYRKQÑAVK20KYL-Ser(Lac)-CONH2", "isolated yield": 2.5}
{"substance": "HSDGIFTDSY10SRYRKQÑAVK20KYL-Ser(Glc)-CONH2", "isolated yield": 3.1}
{"substance": "HSDGIFTDSY10SRYRKQÑAVK20KYL-Ser(Glc)-Ser(Glc)-CONH2", "isolated yield": 0.9}
{"substance": "HSDGIFTDSY10SRYRKQÑAVK20KYL-Ser(Lac)-CONH2", "isolated yield": 4.5}
{"substance": "HSDGIFTDSY10SRYRKQÑAVK20KYL-Ser(OH)-CONH2", "isolated yield": 3.6}
{"substance": "HSD∑IFTDSY10SRYRKQÑAVK20KYL-Ser(Lac)-CONH2", "isolated yield": 3.9}
